{"source": "patent US6821774B1", "about": "“Compositions and methods for increasing cholesterol efflux and raising HDL using ATP binding cassette transporter ABC1” (CV Therapeutics, Inc., priority 1999, dated 2004)", "tested_on": "RAW 264.7 cells", "assay": "Apo A-I-mediated cholesterol efflux assay in cholesterol-loaded RAW 264.7 macrophage cells", "format": "cell-based, mouse", "settings": "similar assay, RAW 264.7 cells cholesterol-loaded for 48 hours", "experimental": "To determine whether ligands for nuclear receptors affect the process of apolipoprotein-mediated cholesterol efflux, various ligands were tested using the apo A-I-mediated cholesterol efflux assay described in Example 12. The nuclear receptor superfamily includes several members, such as the liver receptor LXR, the retinoid receptor RXR, and the peroxisome proliferator-activated receptor PPAR, which have been implicated in lipid metabolism (Russell. D. W., Cell, 97:539-542 (1999); Spiegelman, B. W., Cell, 93:153-155 (1998); Janowski et al., Nature, 383:728-731 (1996)). […] Using the above-described assay, 9 cis-retinoic acid (RXR ligand), oxysterol (LXR ligand), and fenfibrate (PPAR ligand) was tested to determine the effect on cholesterol efflux.\nTo determine whether eicosanoids affect the process of apolipoprotein-mediated cholesterol efflux, PGE1 and PG12 were tested using the apo A-I-mediated cholesterol efflux assay described in Example 12.", "note": "At least one compound was matched to its structure with a doubt left."}
{"smiles": "CC(C)(Oc1ccc(CCNC(=O)c2ccc(Cl)cc2)cc1)C(=O)O", "note": "[benzfibrate]", "values": [{"measurement": "effect on cholesterol efflux (data not shown)", "value": "increase cholesterol efflux"}]}
